The supplement of paper PMC8728848
The other results are listed elsewhere or left out.

What was measured:
Test in all cases: glycan array binding signal (z-score within array); higher = stronger binding
Conditions in all cases: glycan notation: IUPAC condensed, linker removed
[1] = molecular target: Gal(b1-3)GlcNAc(b1-2)Man(a1-3)[Gal(b1-3)GlcNAc(b1-2)Man(a1-6)]Man(b1-4)GlcNAc(b1-4)[Fuc(a1-6)]GlcNAc
Outline: (§1)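 Glycan array binding is given as a within-array Z-score, which can be read as non-binding when negative. The arrays, 3228 of them, came from the Consortium for Functional Glycomics database and were retained only where the protein sequence was available. Z-scores were averaged across arrays of the same protein sequence at different concentrations or buffers and across linkers.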

[2] = molecular target: Gal(b1-3)GlcNAc(b1-2)Man(a1-3)[GlcNAc(b1-4)][Gal(b1-3)GlcNAc(b1-2)Man(a1-6)]Man(b1-4)GlcNAc(b1-4)GlcNAc
Outline: as §1

[3] = molecular target: Gal(b1-3)GlcNAc(b1-2)[Gal(b1-3)GlcNAc(b1-6)]Man(a1-6)[Gal(b1-3)GlcNAc(b1-2)Man(a1-3)]Man(b1-4)GlcNAc(b1-4)GlcNAc
Outline: as §1

[4] = molecular target: Gal(b1-3)GlcNAc(b1-3)Gal(b1-3)GlcNAc
Outline: as §1

[5] = molecular target: Gal(b1-3)GlcNAc(b1-3)Gal(b1-4)Glc
Outline: as §1

[6] = molecular target: Gal(b1-3)GlcNAc(b1-3)Gal(b1-4)GlcNAc
Outline: as §1

[7] = molecular target: Gal(b1-3)GlcNAc(b1-3)Gal(b1-4)GlcNAc(b1-2)Man(a1-3)[Gal(b1-3)GlcNAc(b1-3)Gal(b1-4)GlcNAc(b1-2)Man(a1-6)]Man(b1-4)GlcNAc(b1-4)GlcNAc
Outline: as §1

[8] = molecular target: Gal(b1-3)GlcNAc(b1-3)Gal(b1-4)GlcNAc(b1-2)[Gal(b1-3)GlcNAc(b1-3)Gal(b1-4)GlcNAc(b1-6)]Man(a1-6)[Gal(b1-3)GlcNAc(b1-3)Gal(b1-4)GlcNAc(b1-2)Man(a1-3)]Man(b1-4)GlcNAc(b1-4)[Fuc(a1-6)]GlcNAc
Outline: as §1

[9] = molecular target: Gal(b1-3)GlcNAc(b1-3)Gal(b1-4)GlcNAc(b1-3)Gal(b1-4)GlcNAc(b1-2)[Gal(b1-3)GlcNAc(b1-3)Gal(b1-4)GlcNAc(b1-3)Gal(b1-4)GlcNAc(b1-6)]Man(a1-6)[Gal(b1-3)GlcNAc(b1-3)Gal(b1-4)GlcNAc(b1-3)Gal(b1-4)GlcNAc(b1-2)Man(a1-3)]Man(b1-4)GlcNAc(b1-4)[Fuc(a1-6)]GlcNAc
Outline: as §1

[10] = molecular target: Gal(b1-3)GlcNAc(b1-3)Gal(b1-4)GlcNAc(b1-6)[Gal(b1-3)GlcNAc(b1-3)]Gal(b1-4)Glc
Outline: as §1

[11] = molecular target: Gal(b1-3)GlcNAc(b1-3)Gal(b1-4)[Fuc(a1-3)]GlcNAc
Outline: as §1

[12] = molecular target: Gal(b1-3)GlcNAc(b1-3)Gal(b1-4)[Fuc(a1-3)]GlcNAc(b1-6)[Gal(b1-3)GlcNAc(b1-3)]Gal(b1-4)Glc
Outline: as §1

[13] = molecular target: Gal(b1-3)GlcNAc(b1-3)GalNAc
Outline: as §1

[14] = molecular target: Gal(b1-3)GlcNAc(b1-6)Gal(b1-4)GlcNAc
Outline: as §1

[15] = molecular target: Gal(b1-3)GlcNAc(b1-6)GalNAc
Outline: as §1

[16] = molecular target: Gal(b1-3)GlcNAc(b1-6)[Gal(b1-3)]GalNAc
Outline: as §1

Gal(b1-3)GlcNAc6S = molecular target: Gal(b1-3)GlcNAc6S
Outline: as §1

[17] = molecular target: Gal(b1-3)[Fuc(a1-4)]GlcNAc
Outline: as §1

[18] = molecular target: Gal(b1-3)[Fuc(a1-4)]GlcNAc(b1-2)Man
Outline: as §1

[19] = molecular target: Gal(b1-3)[Fuc(a1-4)]GlcNAc(b1-2)Man(a1-3)[Gal(b1-3)[Fuc(a1-4)]GlcNAc(b1-2)Man(a1-6)]Man(b1-4)GlcNAc(b1-4)[Fuc(a1-6)]GlcNAc
Outline: as §1

[20] = molecular target: Gal(b1-3)[Fuc(a1-4)]GlcNAc(b1-3)Gal(b1-3)[Fuc(a1-4)]GlcNAc
Outline: as §1

[21] = molecular target: Gal(b1-3)[Fuc(a1-4)]GlcNAc(b1-3)Gal(b1-4)[Fuc(a1-3)]GlcNAc
Outline: as §1

[22] = molecular target: Gal(b1-3)[Fuc(a1-4)]GlcNAc(b1-6)GalNAc
Outline: as §1

[23] = molecular target: Gal(b1-3)[GlcNAc(b1-6)]GalNAc
Outline: as §1

[24] = molecular target: Gal(b1-3)[Neu5Ac(a2-6)]GalNAc
Outline: as §1

[25] = molecular target: Gal(b1-3)[Neu5Ac(a2-6)]GlcNAc(b1-4)Gal(b1-4)Glc
Outline: as §1

[26] = molecular target: Gal(b1-3)[Neu5Ac(b2-6)]GalNAc
Outline: as §1

Gal(b1-4)Gal = molecular target: Gal(b1-4)Gal
Outline: as §1

[27] = molecular target: Gal(b1-4)GalNAc(a1-3)[Fuc(a1-2)]Gal(b1-4)GlcNAc
Outline: as §1

[28] = molecular target: Gal(b1-4)GalNAc(b1-3)[Fuc(a1-2)]Gal(b1-4)GlcNAc
Outline: as §1

B1: Awp1 (Candida glabrata) (protein)
chain: MSLITIFAFLIKATLVLSLDILTPTTLTGDQTFNEDVSVVSSLTLNDGSQYLFNNLLQIAPSSASVTANALAAVSVFTFSLPPSSSLSNSGTLIISNSNTGPSTEQHIVITPNVMANTGTITLSLAHTNTDSSSTLIIDPVTFYNTGTINYESIGSETNDPSLTGNILSIGSSGRTLQNLGTINLNAANSYYLLGTITENSGSINVQKGFLYVNALDFIGNTINLSTTTALAFISPVSQVVRVRGVFFGNIIASVGSSGTFSYNTQTGILTVTTNGVYSYDIGCGYNPALMSGQQETLSFQGNPYDTFLVLVNQPIPSDLTCAAVSSSITPSSSVEPSSSVVPSSSVEPSSSVEPSSSVEPSSSVEPSSSVEPSSSVEPSSSVEPSSSVEPSSSVEPSSSVEPSSSVEPSSSVEPSSSVEPSSSVEPSSSVEPSSSVEPSSSVEPSSSVEPSSSVEPSSLIVPSSSVEPSSSVLPSSSVVPSSSVEPSTPPIPSSSVEPSSSVVPSSPAVPSSSVEPSTPPIPSSSVVSASVFDTSSTLPSSPSVPPSSVSPSTISTPSSSAAPSSFCPTCVSSGTPPAPSSSAIVPTSSAGGGNGGDNREPGAAGQPGAAGQPGAAGQPGAAGQPGAAGQPGAAGQPGAAGQPGAAGQPGAAGQPGAAGQPGAGFGVGSEQPTPGAGAGSGSADGNQSGTGSGTGNGQQGSGQAGSGQAGSGQEGSGQAGSGQAGSGQAGSGQAGSGQAGLDNTASGQSEGGQASAMDGDQSGRDGQSNSGSLLQPNAQQGTGSGTGSDIGADQASGESPGQIGDAQPGSGTDQSSGRHSLAAEARTSQSHSLAADARTRSTTRQTSVIAPDTAPGTASGTAPGTAPGTAVVTTFHGCGTVNHKGMINILLALALLVLL
glycan array binding signal (z-score) [1]: 0.44 | glycan array binding signal (z-score) [2]: -1.44 | glycan array binding signal (z-score) [3]: 2.35 | glycan array binding signal (z-score) [4]: 0.181 | glycan array binding signal (z-score) [5]: 0.354 | glycan array binding signal (z-score) [6]: 0.12 | glycan array binding signal (z-score) [7]: -1.07 | glycan array binding signal (z-score) [8]: 1.68 | glycan array binding signal (z-score) [9]: -1.15 | glycan array binding signal (z-score) [10]: 2.29 | glycan array binding signal (z-score) [11]: -1.27 | glycan array binding signal (z-score) [12]: -0.137 | glycan array binding signal (z-score) [13]: -0.53 | glycan array binding signal (z-score) [14]: -0.148 | glycan array binding signal (z-score) [15]: 1.17 | glycan array binding signal (z-score) [16]: -0.25 | glycan array binding signal (z-score) (Gal(b1-3)GlcNAc6S): 1.32 | glycan array binding signal (z-score) [17]: -0.423 | glycan array binding signal (z-score) [18]: -0.994 | glycan array binding signal (z-score) [19]: 0.673 | glycan array binding signal (z-score) [20]: -0.848 | glycan array binding signal (z-score) [21]: -1.16 | glycan array binding signal (z-score) [22]: -0.853 | glycan array binding signal (z-score) [23]: -0.266 | glycan array binding signal (z-score) [24]: -0.433 | glycan array binding signal (z-score) [25]: 0.191 | glycan array binding signal (z-score) [26]: 0.232 | glycan array binding signal (z-score) (Gal(b1-4)Gal): -0.866 | glycan array binding signal (z-score) [27]: -0.497 | glycan array binding signal (z-score) [28]: -0.122
